The supplement of paper PMC10849652
This is one part of the list.

Protein sequences, listed by entry. Tags and fused reporters are not part of them. Lines headed by an entry give the natural chain unless they say otherwise; changes in a name come on top.
UniProt Q9BTV7: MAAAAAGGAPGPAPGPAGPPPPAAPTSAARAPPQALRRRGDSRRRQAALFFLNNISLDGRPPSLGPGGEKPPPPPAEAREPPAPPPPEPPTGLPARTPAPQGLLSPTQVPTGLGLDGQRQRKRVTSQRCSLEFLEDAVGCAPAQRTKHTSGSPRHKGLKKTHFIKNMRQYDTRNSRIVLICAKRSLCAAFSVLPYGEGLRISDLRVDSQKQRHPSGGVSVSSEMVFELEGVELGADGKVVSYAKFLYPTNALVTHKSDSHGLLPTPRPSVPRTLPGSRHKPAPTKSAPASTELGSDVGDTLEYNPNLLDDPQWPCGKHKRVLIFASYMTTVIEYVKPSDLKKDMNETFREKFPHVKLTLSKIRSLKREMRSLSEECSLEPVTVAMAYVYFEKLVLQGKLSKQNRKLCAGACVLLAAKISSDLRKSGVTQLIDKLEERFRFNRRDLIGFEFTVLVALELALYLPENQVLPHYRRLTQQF
UniProt Q9H425: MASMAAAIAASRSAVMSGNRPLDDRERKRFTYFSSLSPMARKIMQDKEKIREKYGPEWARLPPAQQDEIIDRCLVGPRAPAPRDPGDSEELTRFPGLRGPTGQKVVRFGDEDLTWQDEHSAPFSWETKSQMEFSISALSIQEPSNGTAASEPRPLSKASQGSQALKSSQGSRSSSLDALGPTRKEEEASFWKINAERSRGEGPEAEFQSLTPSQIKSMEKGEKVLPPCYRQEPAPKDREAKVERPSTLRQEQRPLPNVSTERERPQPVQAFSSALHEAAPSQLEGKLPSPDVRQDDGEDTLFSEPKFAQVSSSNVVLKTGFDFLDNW
UniProt Q96NL8: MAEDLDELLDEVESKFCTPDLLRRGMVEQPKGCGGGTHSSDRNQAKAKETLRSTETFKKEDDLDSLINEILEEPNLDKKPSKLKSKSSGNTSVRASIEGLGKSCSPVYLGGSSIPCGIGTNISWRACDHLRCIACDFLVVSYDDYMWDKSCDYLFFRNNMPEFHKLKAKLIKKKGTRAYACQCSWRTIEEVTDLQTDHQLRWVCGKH
UniProt P27824: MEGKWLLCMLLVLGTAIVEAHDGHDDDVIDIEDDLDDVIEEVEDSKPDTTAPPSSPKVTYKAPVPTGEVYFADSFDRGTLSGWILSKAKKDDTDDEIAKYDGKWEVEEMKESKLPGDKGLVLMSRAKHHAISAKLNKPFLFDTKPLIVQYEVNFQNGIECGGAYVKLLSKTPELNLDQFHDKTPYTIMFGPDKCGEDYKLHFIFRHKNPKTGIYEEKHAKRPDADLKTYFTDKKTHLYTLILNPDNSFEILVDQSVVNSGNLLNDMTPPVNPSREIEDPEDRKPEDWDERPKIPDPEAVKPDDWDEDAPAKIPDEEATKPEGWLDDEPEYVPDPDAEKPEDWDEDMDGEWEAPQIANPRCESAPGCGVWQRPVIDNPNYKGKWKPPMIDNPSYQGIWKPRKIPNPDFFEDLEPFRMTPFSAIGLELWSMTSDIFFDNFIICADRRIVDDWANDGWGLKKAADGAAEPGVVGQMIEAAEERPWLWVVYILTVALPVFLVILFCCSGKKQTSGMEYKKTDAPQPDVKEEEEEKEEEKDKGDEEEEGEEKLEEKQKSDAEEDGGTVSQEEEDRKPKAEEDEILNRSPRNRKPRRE
UniProt Q6P5X5: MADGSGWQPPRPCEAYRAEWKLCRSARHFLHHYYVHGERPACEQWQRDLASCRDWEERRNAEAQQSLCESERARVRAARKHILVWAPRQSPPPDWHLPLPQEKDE
UniProt Q14012: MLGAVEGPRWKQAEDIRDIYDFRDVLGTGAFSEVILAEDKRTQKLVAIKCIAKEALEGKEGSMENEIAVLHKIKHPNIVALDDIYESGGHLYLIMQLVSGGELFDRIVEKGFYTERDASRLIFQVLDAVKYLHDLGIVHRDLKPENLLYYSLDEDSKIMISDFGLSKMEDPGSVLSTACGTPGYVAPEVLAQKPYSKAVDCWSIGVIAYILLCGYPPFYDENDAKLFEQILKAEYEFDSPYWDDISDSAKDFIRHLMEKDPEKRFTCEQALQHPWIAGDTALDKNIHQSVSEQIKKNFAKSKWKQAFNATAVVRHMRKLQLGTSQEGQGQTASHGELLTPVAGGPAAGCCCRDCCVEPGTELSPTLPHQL
UniProt Q8WUQ7: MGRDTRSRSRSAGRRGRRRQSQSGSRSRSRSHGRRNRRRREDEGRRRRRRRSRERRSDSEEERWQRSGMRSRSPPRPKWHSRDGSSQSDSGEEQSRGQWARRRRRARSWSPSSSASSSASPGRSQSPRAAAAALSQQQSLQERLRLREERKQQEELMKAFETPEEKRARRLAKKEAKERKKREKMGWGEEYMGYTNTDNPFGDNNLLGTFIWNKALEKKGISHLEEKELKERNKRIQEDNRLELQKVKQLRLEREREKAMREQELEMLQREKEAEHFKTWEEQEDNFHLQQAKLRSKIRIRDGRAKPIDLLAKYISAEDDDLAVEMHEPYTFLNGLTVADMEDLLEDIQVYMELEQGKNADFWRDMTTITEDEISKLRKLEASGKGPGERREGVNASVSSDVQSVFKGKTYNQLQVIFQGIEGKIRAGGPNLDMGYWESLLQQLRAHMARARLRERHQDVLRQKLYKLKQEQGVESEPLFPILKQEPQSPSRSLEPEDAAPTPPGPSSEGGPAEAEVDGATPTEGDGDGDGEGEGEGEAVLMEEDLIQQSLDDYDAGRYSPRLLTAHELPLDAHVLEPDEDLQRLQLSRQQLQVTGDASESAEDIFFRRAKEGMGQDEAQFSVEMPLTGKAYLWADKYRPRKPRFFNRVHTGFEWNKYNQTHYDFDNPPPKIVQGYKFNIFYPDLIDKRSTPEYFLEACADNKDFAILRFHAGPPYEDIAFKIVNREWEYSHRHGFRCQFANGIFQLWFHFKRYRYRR
UniProt P00915: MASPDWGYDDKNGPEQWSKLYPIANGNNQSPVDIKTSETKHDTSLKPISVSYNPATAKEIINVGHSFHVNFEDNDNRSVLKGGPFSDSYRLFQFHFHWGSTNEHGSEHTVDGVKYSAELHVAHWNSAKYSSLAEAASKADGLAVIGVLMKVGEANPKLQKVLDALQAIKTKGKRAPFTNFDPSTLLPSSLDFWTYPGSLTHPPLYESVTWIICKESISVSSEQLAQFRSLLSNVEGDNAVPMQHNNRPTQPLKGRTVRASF
UniProt Q13555: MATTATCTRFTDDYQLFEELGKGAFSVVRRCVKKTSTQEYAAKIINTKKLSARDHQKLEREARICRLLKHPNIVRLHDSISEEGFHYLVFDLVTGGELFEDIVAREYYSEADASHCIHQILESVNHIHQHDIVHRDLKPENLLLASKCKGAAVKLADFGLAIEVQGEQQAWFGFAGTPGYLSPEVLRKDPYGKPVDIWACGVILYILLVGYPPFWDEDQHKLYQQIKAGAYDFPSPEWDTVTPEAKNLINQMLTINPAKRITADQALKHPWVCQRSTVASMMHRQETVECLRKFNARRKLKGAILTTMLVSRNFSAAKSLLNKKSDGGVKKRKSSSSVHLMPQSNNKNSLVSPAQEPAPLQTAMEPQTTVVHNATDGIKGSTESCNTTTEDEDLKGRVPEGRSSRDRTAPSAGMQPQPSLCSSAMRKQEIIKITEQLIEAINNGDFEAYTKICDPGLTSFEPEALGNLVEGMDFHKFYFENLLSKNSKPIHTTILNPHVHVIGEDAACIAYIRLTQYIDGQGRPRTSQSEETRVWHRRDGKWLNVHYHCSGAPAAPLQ
UniProt Q9Y6W3: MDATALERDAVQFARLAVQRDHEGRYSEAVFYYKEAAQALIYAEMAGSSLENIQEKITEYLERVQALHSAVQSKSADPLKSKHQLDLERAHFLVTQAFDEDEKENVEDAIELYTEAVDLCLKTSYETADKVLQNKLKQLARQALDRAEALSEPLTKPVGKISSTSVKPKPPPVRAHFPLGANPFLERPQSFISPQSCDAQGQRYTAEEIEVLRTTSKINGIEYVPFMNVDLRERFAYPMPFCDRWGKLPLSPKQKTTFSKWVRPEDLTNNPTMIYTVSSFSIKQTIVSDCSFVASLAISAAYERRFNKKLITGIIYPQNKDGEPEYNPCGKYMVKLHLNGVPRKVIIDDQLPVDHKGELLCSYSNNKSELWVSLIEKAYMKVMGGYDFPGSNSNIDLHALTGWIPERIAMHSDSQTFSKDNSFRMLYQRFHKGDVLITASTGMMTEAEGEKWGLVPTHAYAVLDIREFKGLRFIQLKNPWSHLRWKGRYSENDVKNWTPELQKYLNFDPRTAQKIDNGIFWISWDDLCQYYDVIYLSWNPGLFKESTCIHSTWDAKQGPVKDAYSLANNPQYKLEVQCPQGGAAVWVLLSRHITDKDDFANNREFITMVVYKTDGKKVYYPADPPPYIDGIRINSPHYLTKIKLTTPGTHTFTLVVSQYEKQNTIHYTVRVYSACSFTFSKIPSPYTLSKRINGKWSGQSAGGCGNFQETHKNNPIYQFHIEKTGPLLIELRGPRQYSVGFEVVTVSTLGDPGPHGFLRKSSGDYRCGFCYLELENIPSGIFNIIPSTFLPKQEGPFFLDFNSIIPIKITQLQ
UniProt Q96N11, whole entry, looked up: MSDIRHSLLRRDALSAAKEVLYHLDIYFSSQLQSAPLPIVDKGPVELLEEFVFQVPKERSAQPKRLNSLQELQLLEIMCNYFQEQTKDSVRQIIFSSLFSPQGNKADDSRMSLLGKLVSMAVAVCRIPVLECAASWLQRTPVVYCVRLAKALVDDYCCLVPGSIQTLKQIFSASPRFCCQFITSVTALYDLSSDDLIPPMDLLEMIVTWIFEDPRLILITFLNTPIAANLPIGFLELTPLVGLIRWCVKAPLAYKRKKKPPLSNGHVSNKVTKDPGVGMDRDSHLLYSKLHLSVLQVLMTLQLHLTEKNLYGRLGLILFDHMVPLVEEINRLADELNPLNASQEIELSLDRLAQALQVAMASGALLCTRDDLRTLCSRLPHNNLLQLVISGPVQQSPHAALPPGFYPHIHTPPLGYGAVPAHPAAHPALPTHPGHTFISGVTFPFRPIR
UniProt Q9NZ63: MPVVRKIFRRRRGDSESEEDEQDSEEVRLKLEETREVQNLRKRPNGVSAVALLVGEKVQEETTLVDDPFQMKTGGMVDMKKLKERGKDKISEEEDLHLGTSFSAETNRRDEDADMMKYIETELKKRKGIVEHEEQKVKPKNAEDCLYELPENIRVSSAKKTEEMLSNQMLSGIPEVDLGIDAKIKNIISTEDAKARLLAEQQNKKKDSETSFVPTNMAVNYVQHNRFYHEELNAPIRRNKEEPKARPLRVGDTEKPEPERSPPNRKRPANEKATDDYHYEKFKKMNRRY
UniProt P40121: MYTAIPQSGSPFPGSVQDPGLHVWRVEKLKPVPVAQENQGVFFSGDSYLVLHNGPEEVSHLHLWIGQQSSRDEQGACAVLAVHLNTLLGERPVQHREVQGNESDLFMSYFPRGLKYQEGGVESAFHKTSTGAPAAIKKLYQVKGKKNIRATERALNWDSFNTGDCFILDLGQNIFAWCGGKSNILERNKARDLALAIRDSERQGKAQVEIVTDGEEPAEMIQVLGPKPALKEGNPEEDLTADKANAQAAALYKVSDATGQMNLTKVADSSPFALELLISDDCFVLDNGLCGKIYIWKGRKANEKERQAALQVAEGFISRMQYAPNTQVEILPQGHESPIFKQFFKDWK
UniProt Q5BKX5: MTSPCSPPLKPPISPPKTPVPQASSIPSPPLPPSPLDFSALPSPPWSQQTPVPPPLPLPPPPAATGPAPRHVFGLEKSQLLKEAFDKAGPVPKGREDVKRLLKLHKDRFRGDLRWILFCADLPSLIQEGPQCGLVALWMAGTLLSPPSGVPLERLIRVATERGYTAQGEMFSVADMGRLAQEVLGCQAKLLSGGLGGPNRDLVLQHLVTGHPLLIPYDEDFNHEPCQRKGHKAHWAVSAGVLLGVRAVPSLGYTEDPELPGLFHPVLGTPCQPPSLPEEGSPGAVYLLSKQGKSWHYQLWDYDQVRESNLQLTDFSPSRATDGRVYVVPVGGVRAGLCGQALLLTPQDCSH
UniProt P35219: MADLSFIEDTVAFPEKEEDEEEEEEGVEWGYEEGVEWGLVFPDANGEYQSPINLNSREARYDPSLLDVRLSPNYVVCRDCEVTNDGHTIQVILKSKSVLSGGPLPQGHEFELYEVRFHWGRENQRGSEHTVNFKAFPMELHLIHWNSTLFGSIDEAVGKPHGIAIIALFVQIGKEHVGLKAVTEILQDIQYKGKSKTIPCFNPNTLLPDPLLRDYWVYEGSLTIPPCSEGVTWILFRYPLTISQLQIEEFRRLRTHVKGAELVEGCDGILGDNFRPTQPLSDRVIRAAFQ
UniProt Q9UFG5: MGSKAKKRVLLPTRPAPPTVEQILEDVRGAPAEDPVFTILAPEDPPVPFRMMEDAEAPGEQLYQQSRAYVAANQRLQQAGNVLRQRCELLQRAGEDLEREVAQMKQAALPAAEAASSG
UniProt Q8IYL3: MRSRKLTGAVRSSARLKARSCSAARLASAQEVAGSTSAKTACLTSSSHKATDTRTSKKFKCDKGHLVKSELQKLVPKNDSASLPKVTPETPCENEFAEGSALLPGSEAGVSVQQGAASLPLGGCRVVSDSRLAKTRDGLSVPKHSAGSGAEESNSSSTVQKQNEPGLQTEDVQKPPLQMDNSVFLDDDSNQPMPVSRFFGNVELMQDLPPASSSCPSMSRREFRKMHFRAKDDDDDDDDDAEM

Columns and labels:
Assay in all cases: log2 fold change, soluble protein after heating vs DMSO (PISA); higher = thermal stabilisation; K562 lysate, 10 uM; active = over 0.2 and 3.5 SD of the protein, either way, in both replicates (recomputed)
[1] = compound: C1=CC=C(C=C1)[C@H](COC2=CC3=C(C=C2)NC(=O)N3)NC(=O)C4=CC=CN(C4=O)CC5=CC(=C(C=C5)F)F
Procedure, shortened: (§1)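 Values give the log-two fold change in thermal stability against solvent controls, from duplicates. Crude K562 extract at 1 mg/mL protein, made by dounce homogenisation in PBS pH 7.4 with 1 mM MgCl2, was treated with 10 μM compound for 30 min. After 3 min heating across 48°C-58°C, aliquots were pooled, adjusted to 0.5% NP-40 at 4°C and centrifuged at 21,000xg for 90 min. The supernatant was measured by TMTpro 16plex LC-MS/MS with channel sums equalised.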

[2] = compound: CC1=C(SC2=C1C(=N[C@H](C3=NN=C(N32)C)CC(=O)N)C4=CC=C(C=C4)Cl)C
Procedure, shortened: as §1

[3] = compound: CC1=C2C(=CC=C1)N=C(N(C2=O)C3=CC=CC=C3C)CN4C=NC5=C(N=CN=C54)N
Procedure, shortened: as §1

[4] = compound: Cc1sc2c(c1C)C(c1ccc(Cl)cc1)=N[C@@H](CC(=O)OC(C)(C)C)c1nnc(C)n1-2
Procedure, shortened: as §1

[5] = compound: c1ccc([C@@H]2C[C@H]2NC2CCNCC2)cc1
Procedure, shortened: as §1

Measured: log2 fold change

CABLES2 (UniProt Q9BTV7)
inactive: [1] 0.006 | [2] -0.007 | [3] -0.131

C1orf198 (UniProt Q9H425)
inactive: [1] 0.093 | [2] -0.028 | [3] 0.055 | [4] 0.062 | [5] -0.109

C8orf37 (UniProt Q96NL8)
inactive: [1] 0.072 | [2] -0.08 | [3] -0.094 | [4] -0.008 | [5] 0.141

CANX isoform 2 (UniProt P27824)
inactive: [1] 0.05 | [2] -0.022 | [3] -0.005 | [4] -0.027 | [5] -0.046

CAPZA2 (UniProt P47755)
inactive: [1] 0.001 | [2] -0.015 | [3] -0.016 | [4] 0.014 | [5] 0.027

C22orf39 (UniProt Q6P5X5)
inactive: [1] 0.01 | [2] -0.004 | [3] -0.138 | [4] 0.023 | [5] -0.004

CAMK1 (UniProt Q14012)
inactive: [1] 0.096 | [2] 0.014 | [3] -0.007 | [4] 0.026 | [5] -0.047

C12orf4 (UniProt Q9NQ89)
inactive: [1] 0.281 | [2] 0.059

Quoted from the entries so far (six entries):
C8orf37 (UniProt Q96NL8)
inactive: [1] 0.072 | [2] -0.08 | [3] -0.094 | [4] -0.008 | [5] 0.141

CANX isoform 2 (UniProt P27824)
inactive: [1] 0.05 | [2] -0.022 | [3] -0.005 | [4] -0.027 | [5] -0.046

CAPZA2 (UniProt P47755)
inactive: [1] 0.001 | [2] -0.015 | [3] -0.016 | [4] 0.014 | [5] 0.027

C22orf39 (UniProt Q6P5X5)
inactive: [1] 0.01 | [2] -0.004 | [3] -0.138 | [4] 0.023 | [5] -0.004

CAMK1 (UniProt Q14012)
inactive: [1] 0.096 | [2] 0.014 | [3] -0.007 | [4] 0.026 | [5] -0.047

C12orf4 (UniProt Q9NQ89)
inactive: [1] 0.281 | [2] 0.059

Continued.

C8orf33 isoform 2 (UniProt Q9H7E9)
inactive: [1] 0 | [2] 0.008 | [3] -0.017 | [4] 0.007 | [5] -0.004

CACTIN isoform 2 (UniProt Q8WUQ7)
inactive: [1] 0.015 | [2] 0.023 | [3] -0.04 | [4] 0.024 | [5] 0.066

CA1 (UniProt P00915)
inactive: [1] 0.016 | [2] 0.001 | [3] 0.02 | [4] -0.01 | [5] -0.054

CAMK2G isoform 8 (UniProt Q13555)
inactive: [1] 0.048 | [2] -0.063 | [3] -0.053 | [4] -0.007 | [5] -0.037

CACYBP (UniProt Q9HB71)
inactive: [1] 0.024 | [2] 0.002 | [3] -0.027 | [4] -0.003 | [5] -0.029

CAPN7 (UniProt Q9Y6W3)
inactive: [1] 0.008 | [2] -0.015 | [3] -0.018 | [4] -0.01 | [5] 0.04

C7orf26 (UniProt Q96N11)
inactive: [1] -0.131 | [2] 0.153 | [3] 0.138 | [4] -0.031 | [5] 0.028

C9orf40 (UniProt Q8IXQ3)
inactive: [1] 0.055 | [2] -0.16 | [3] -0.05 | [4] -0.007 | [5] -0.031

C9orf78 (UniProt Q9NZ63)
inactive: [1] 0.068 | [2] -0.018 | [3] 0.028 | [4] 0.013 | [5] 0.033

C1orf167 isoform 2 (UniProt Q5SNV9)
inactive: [1] -0.11 | [2] 0.042 | [3] 0.073 | [4] -0.133 | [5] -0.246

CAPG (UniProt P40121)
inactive: [1] 0.013 | [2] 0.004 | [3] 0.022 | [4] -0.033 | [5] 0.008

C19orf54 (UniProt Q5BKX5)
inactive: [1] 0.04 | [2] 0.102 | [3] -0.007 | [4] 0.033 | [5] 0.043

C4orf33 (UniProt Q8N1A6)
inactive: [1] -0.038 | [2] 0.044 | [3] -0.019 | [4] -0.093 | [5] -0.031

CA8 (UniProt P35219)
inactive: [1] -0.03 | [2] -0.022 | [3] 0.005 | [4] 0.032 | [5] 0.016

C11orf98 (UniProt E9PRG8)
inactive: [1] 0.015 | [2] 0.018 | [3] 0.016 | [4] -0.021 | [5] -0.038

C19orf25 (UniProt Q9UFG5)
inactive: [1] 0.108 | [2] 0.084 | [3] -0.124 | [4] -0.061 | [5] 0.033

C1orf174 (UniProt Q8IYL3)
inactive: [1] 0.01 | [2] 0.032 | [3] -0.006 | [4] -0.085 | [5] -0.084
